From paper PMC11700651

Molecular target: Flag-METTL3 (methyltransferase-like 3) (human), Q86U44
Test: affinity purification with mass spectrometry; pFlag-METTL3-transfected RD cells infected with EV71; IP with anti-Flag antibody; MS analysis
Settings: remark: other sources report otherwise

- binding: binds
B1: DEAD-box helicase 3X (DDX3X), endogenous, O00571 1-662 (protein)
chain: MSHVAVENALGLDQQFAGLDLNSSDNQSGGSTASKGRYIPPHLRNREATKGFYDKDSSGWSSSKDKDAYSSFGSRSDSRGKSSFFSDRGSGSRGRFDDRGRSDYDGIGSRGDRSGFGKFERGGNSRWCDKSDEDDWSKPLPPSERLEQELFSGGNTGINFEKYDDIPVEATGNNCPPHIESFSDVEMGEIIMGNIELTRYTRPTPVQKHAIPIIKEKRDLMACAQTGSGKTAAFLLPILSQIYSDGPGEALRAMKENGRYGRRKQYPISLVLAPTRELAVQIYEEARKFSYRSRVRPCVVYGGADIGQQIRDLERGCHLLVATPGRLVDMMERGKIGLDFCKYLVLDEADRMLDMGFEPQIRRIVEQDTMPPKGVRHTMMFSATFPKEIQMLARDFLDEYIFLAVGRVGSTSENITQKVVWVEESDKRSFLLDLLNATGKDSLTLVFVETKKGADSLEDFLYHEGYACTSIHGDRSQRDREEALHQFRSGKSPILVATAVAARGLDISNVKHVINFDLPSDIEEYVHRIGRTGRVGNLGLATSFFNERNINITKDLLDLLVEAKQEVPSWLENMAYEHHYKGSSRGRSKSSRFSGGFGARDYRQSSGASSSSFSSSRASSSRSGGGGHGSSRGFGGGGYGGFYNSDGYGGNYNSQGVDWWGN

No constants are given. Whether binding was seen depends on the method and setting. In cells and extracts the contact can be indirect. A yes stands for co-enrichment or nearness to the bait. Other partners may have been found.
